Test results reported in the supplement of paper PMC8728848.
The list shows a part of the results.

Tests used:
Assay in all cases: glycan array binding signal (z-score within array); higher = stronger binding
Settings in all cases: glycan notation: IUPAC condensed, linker removed
[1] = target: GlcNAc(b1-3)Gal(b1-4)GlcNAc(b1-3)Gal(b1-4)GlcNAc(b1-3)Gal(b1-4)GlcNAc(b1-3)Gal(b1-4)GlcNAc(b1-2)Man(a1-3)[GlcNAc(b1-3)Gal(b1-4)GlcNAc(b1-3)Gal(b1-4)GlcNAc(b1-3)Gal(b1-4)GlcNAc(b1-3)Gal(b1-4)GlcNAc(b1-2)Man(a1-6)]Man(b1-4)GlcNAc(b1-4)GlcNAc
Method in brief: (§1)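 The binding signal is a Z-score computed within each array. Data were drawn from 3228 arrays in the Consortium for Functional Glycomics database, restricted to those with a known protein sequence. Scores were averaged over arrays of the same protein sequence at different concentrations or buffers, and over linkers, and negative values can be taken as non-binding.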

[2] = target: GlcNAc(b1-3)Gal(b1-4)GlcNAc(b1-3)Gal(b1-4)GlcNAc(b1-3)Gal(b1-4)GlcNAc(b1-3)Gal(b1-4)GlcNAc(b1-2)Man(a1-3)[GlcNAc(b1-3)Gal(b1-4)GlcNAc(b1-3)Gal(b1-4)GlcNAc(b1-3)Gal(b1-4)GlcNAc(b1-3)Gal(b1-4)GlcNAc(b1-2)Man(a1-6)]Man(b1-4)GlcNAc(b1-4)[Fuc(a1-6)]GlcNAc
Method in brief: as §1

[3] = target: GlcNAc(b1-3)Gal(b1-4)GlcNAc(b1-3)Gal(b1-4)GlcNAc(b1-3)Gal(b1-4)GlcNAc(b1-3)Gal(b1-4)GlcNAc(b1-2)[GlcNAc(b1-3)Gal(b1-4)GlcNAc(b1-3)Gal(b1-4)GlcNAc(b1-3)Gal(b1-4)GlcNAc(b1-3)Gal(b1-4)GlcNAc(b1-6)]Man(a1-6)[GlcNAc(b1-3)Gal(b1-4)GlcNAc(b1-3)Gal(b1-4)GlcNAc(b1-3)Gal(b1-4)GlcNAc(b1-3)Gal(b1-4)GlcNAc(b1-2)Man(a1-3)]Man(b1-4)GlcNAc(b1-4)[Fuc(a1-6)]GlcNAc
Method in brief: as §1

[4] = target: GlcNAc(b1-3)Gal(b1-4)GlcNAc(b1-3)Gal(b1-4)GlcNAc(b1-3)GalNAc
Method in brief: as §1

[5] = target: GlcNAc(b1-3)Gal(b1-4)GlcNAc(b1-3)GalNAc
Method in brief: as §1

[6] = target: GlcNAc(b1-3)Gal(b1-4)GlcNAc(b1-3)[GlcNAc(b1-3)Gal(b1-4)GlcNAc(b1-3)]GalNAc
Method in brief: as §1

[7] = target: GlcNAc(b1-3)Gal(b1-4)GlcNAc(b1-6)[Gal(b1-3)]GalNAc
Method in brief: as §1

[8] = target: GlcNAc(b1-3)Gal(b1-4)GlcNAc(b1-6)[GlcNAc(b1-3)Gal(b1-3)]GalNAc
Method in brief: as §1

[9] = target: GlcNAc(b1-3)Gal(b1-4)GlcNAc(b1-6)[GlcNAc(b1-3)]Gal(b1-4)GlcNAc
Method in brief: as §1

GlcNAc(b1-3)GalNAc = target: GlcNAc(b1-3)GalNAc
Method in brief: as §1

GlcNAc(b1-3)Man = target: GlcNAc(b1-3)Man
Method in brief: as §1

[10] = target: GlcNAc(b1-3)[GlcNAc(b1-4)][GlcNAc(b1-6)]GlcNAc
Method in brief: as §1

[11] = target: GlcNAc(b1-3)[GlcNAc(b1-6)]Gal(b1-4)GlcNAc
Method in brief: as §1

[12] = target: GlcNAc(b1-3)[GlcNAc(b1-6)]GalNAc
Method in brief: as §1

[13] = target: GlcNAc(b1-4)Gal(b1-4)GlcNAc
Method in brief: as §1

GlcNAc(b1-4)GlcNAc = target: GlcNAc(b1-4)GlcNAc
Method in brief: as §1

[14] = target: GlcNAc(b1-4)GlcNAc(b1-4)GlcNAc
Method in brief: as §1

[15] = target: GlcNAc(b1-4)GlcNAc(b1-4)GlcNAc(b1-4)GlcNAc(b1-4)GlcNAc
Method in brief: as §1

[16] = target: GlcNAc(b1-4)GlcNAc(b1-4)GlcNAc(b1-4)GlcNAc(b1-4)GlcNAc(b1-4)GlcNAc
Method in brief: as §1

[17] = target: GlcNAc(b1-4)[GlcNAc(b1-6)]GalNAc
Method in brief: as §1

[18] = target: GlcNAc(b1-6)Gal(b1-4)GlcNAc
Method in brief: as §1

GlcNAc(b1-6)GalNAc = target: GlcNAc(b1-6)GalNAc
Method in brief: as §1

GlcNAc3Prop(b1-4)GlcNAc = target: GlcNAc3Prop(b1-4)GlcNAc
Method in brief: as §1

[19] = target: GlcNAc6S(b1-3)Gal(b1-4)GlcNAc
Method in brief: as §1

Kdn(a2-3)Gal(b1-3)GalNAc = target: Kdn(a2-3)Gal(b1-3)GalNAc
Method in brief: as §1

Kdn(a2-3)Gal(b1-3)GlcNAc = target: Kdn(a2-3)Gal(b1-3)GlcNAc
Method in brief: as §1

Kdn(a2-3)Gal(b1-4)Glc = target: Kdn(a2-3)Gal(b1-4)Glc
Method in brief: as §1

Kdn(a2-3)Gal(b1-4)GlcNAc = target: Kdn(a2-3)Gal(b1-4)GlcNAc
Method in brief: as §1

[20] = target: Kdn(a2-3)Gal(b1-4)[Fuc(a1-3)]GlcNAc
Method in brief: as §1

Kdn(a2-6)Gal(b1-4)GlcNAc = target: Kdn(a2-6)Gal(b1-4)GlcNAc
Method in brief: as §1

[21] = target: Man(a1-2)Man(a1-2)Man(a1-3)Man
Method in brief: as §1

[22] = target: Man(a1-2)Man(a1-2)Man(a1-6)[Man(a1-3)]Man
Method in brief: as §1

Man(a1-2)Man(a1-3)Man = target: Man(a1-2)Man(a1-3)Man
Method in brief: as §1

[23] = target: Man(a1-2)Man(a1-3)[Man(a1-2)Man(a1-6)]Man
Method in brief: as §1

[24] = target: Man(a1-2)Man(a1-3)[Man(a1-2)Man(a1-6)]Man(a1-6)[Man(a1-2)Man(a1-2)Man(a1-3)]Man
Method in brief: as §1

[25] = target: Man(a1-2)Man(a1-3)[Man(a1-2)Man(a1-6)]Man(a1-6)[Man(a1-2)Man(a1-2)Man(a1-3)]Man(b1-4)GlcNAc(b1-4)GlcNAc
Method in brief: as §1

[26] = target: Man(a1-2)Man(a1-3)[Man(a1-6)]Man(a1-6)[Man(a1-2)Man(a1-3)]Man(b1-4)GlcNAc(b1-4)GlcNAc
Method in brief: as §1

B1: GST-Gap1 (Streptococcus parasanguinis), A1C3L5 (protein)
chain: MFYFVPSWYNGQRQWYYDTPWWFRVKNRMTFDDSVNQVKMFLQGQEEIGLMILNYQPQLRYFLHKQNIFGIYYWSFFDDIQNITRSYTKIIHLKDLNWPEGCEFLYSPFAVVVRLKGEIFAIVNYAEDGNLHSVSFQKNGKVTKDYIFDDRGFLSSILYYDIDERPLYQDYLNINGVWQVREFLKKENDPTPILMINDFSDQTFSKKYYNGWEELIKERLAIFQNNHVENEDVFVLASDTQHNQLVSSIFKEHRKIYSFFGNRFNLENLGQDRISINDATFLVVDTEKNEELLRKTCENLVFKSIPIVRLSPFDSRLRLGHSQTVKEQIIYFHIDNIELDELYSVIAIILELMTLHLDIELRIVTFRQDFQLDLLKTWIIDFIKTNHFEDLLFKQISEGENEIEDEGEIELSRIAMECFTNENQIIKCLDTARLVIDLGIEPDLYTQIASISAGIPQINRVSSDYVIHQKNGLVISDISKLSSAIEFYFDGLFNWNEALIYAVRKMSDYTSGKILKQWKGMLKKK
[1]
  glycan array binding signal (z-score): 0.361
[2]
  glycan array binding signal (z-score): -0.16
[3]
  glycan array binding signal (z-score): 0.811
[4]
  glycan array binding signal (z-score): -1.17
[5]
  glycan array binding signal (z-score): 1.04
[6]
  glycan array binding signal (z-score): -1.42
[7]
  glycan array binding signal (z-score): -1.37
[8]
  glycan array binding signal (z-score): 0.223
[9]
  glycan array binding signal (z-score): -0.843
GlcNAc(b1-3)GalNAc
  glycan array binding signal (z-score): 0.134
GlcNAc(b1-3)Man
  glycan array binding signal (z-score): -0.28
[10]
  glycan array binding signal (z-score): -0.452
[11]
  glycan array binding signal (z-score): -0.47
[12]
  glycan array binding signal (z-score): 0.668
[13]
  glycan array binding signal (z-score): 0.808
GlcNAc(b1-4)GlcNAc
  glycan array binding signal (z-score): -0.323
[14]
  glycan array binding signal (z-score): -0.14
[15]
  glycan array binding signal (z-score): 0.363
[16]
  glycan array binding signal (z-score): -0.206
[17]
  glycan array binding signal (z-score): -0.353
[18]
  glycan array binding signal (z-score): 0.478
GlcNAc(b1-6)GalNAc
  glycan array binding signal (z-score): -0.423
GlcNAc3Prop(b1-4)GlcNAc
  glycan array binding signal (z-score): -0.216
[19]
  glycan array binding signal (z-score): -0.181
Kdn(a2-3)Gal(b1-3)GalNAc
  glycan array binding signal (z-score): -0.383
Kdn(a2-3)Gal(b1-3)GlcNAc
  glycan array binding signal (z-score): -0.28
Kdn(a2-3)Gal(b1-4)Glc
  glycan array binding signal (z-score): -0.979
Kdn(a2-3)Gal(b1-4)GlcNAc
  glycan array binding signal (z-score): -0.084
[20]
  glycan array binding signal (z-score): -0.408
Kdn(a2-6)Gal(b1-4)GlcNAc
  glycan array binding signal (z-score): -0.034
[21]
  glycan array binding signal (z-score): -0.034
[22]
  glycan array binding signal (z-score): 0.165
Man(a1-2)Man(a1-3)Man
  glycan array binding signal (z-score): 0.075
[23]
  glycan array binding signal (z-score): -0.526
[24]
  glycan array binding signal (z-score): -0.183
[25]
  glycan array binding signal (z-score): -0.397
[26]
  glycan array binding signal (z-score): -0.38
